Values from PubChem BioAssay AID493246 (Drosophila RNAi Screening Center, 2011)
Aim: 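Genome-wide search for dsRNAs that reduce cell number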 (primary screen). Cell system: Drosophila Kc and S2R+ cells. Reagents: long dsRNA against Drosophila genes. Detection: 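Cell number per well after knock-down, printed as raw plate values; calls were based on per-plate z-scores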. Scale: Kc cell number and S2R+ cell number: higher = more cells remaining. Rule for the call: 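Counted as a hit if cell number falls by a z-score of at least 3 within its plate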.
In all, the deposit lists about 21,000 reagents; below is a random part of those that have a named target and a result. In the full data, 429 (2%) were called active. 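Values are raw and not normalised between plates; calls rest on per-plate z-scores that were not deposited.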 Unmarked entries are inactive. Reagents against one gene are numbered here. Reagent sequences are not shown. The record does not give: the amount of reagent, the time to read-out.

no.	predicted target	reagent no.	Kc cell number, rep 1	Kc cell number, rep 2	S2R+ cell number, rep 1	S2R+ cell number, rep 2
1	CG6628	1	1.34e6	1.42e6	1.31e6	1.36e6
2	PGS1	1	1.18e6	1.14e6	1.09e6	1.21e6
3	qkr54B	1	1.45e6	1.55e6	1.11e6	1.23e6
4	Or23a	1	1.51e6	1.49e6	1.10e6	1.24e6
5	CG7394	1	1.65e6	1.66e6	1.33e6	1.31e6
6	Ubc84D	1	1.47e6	1.58e6	1.27e6	1.36e6
7	CG3987	1	1.56e6	1.63e6	1.40e6	1.44e6
8	spn-A	1	1.48e6	1.53e6	1.07e6	1.14e6
9	IntS4	1	7.62e5		7.54e5	
10	sxe2	1	1.49e6	1.54e6	1.12e6	1.22e6
11	esg	1	1.69e6	2.00e6	1.20e6	1.28e6
12	Ccp84Ag	1	1.50e6	1.61e6	1.36e6	1.50e6
13	Sox15	1	1.38e6	1.48e6	9.42e5	1.11e6
14	FoxL1	1	1.50e6	1.34e6	1.15e6	1.37e6
15	CG12009	1	1.41e6	1.47e6	1.29e6	1.19e6
16	side-IV	1	1.35e6	1.38e6	1.09e6	1.16e6
17	Pmm2	1	1.30e6	1.55e6	1.29e6	1.41e6
18	gsb-n	1	1.59e6	1.71e6	9.61e5	1.11e6
19	gsb-n	2	1.55e6	1.58e6	1.24e6	1.45e6
20	Dus3	1	1.50e6	1.70e6	1.34e6	3.98e5
21	mRpS34	1	1.09e6	1.34e6	1.15e6	1.30e6
22	Hgsnat	1	5.55e5		8.80e5	
23	Cyp12c1	1	1.70e6	1.79e6	1.54e6	1.54e6
24	DCP1	1	1.30e6	1.36e6	1.04e6	1.00e6
25	CG30325	1	5.87e5		8.63e5	
26	AsnRS	1	1.37e6	1.38e6	1.23e6	1.24e6
27	acs	1	1.53e6	1.31e6	9.61e5	1.36e6
28	mTerf5	1	1.54e6	1.61e6	1.31e6	1.34e6
29	Ir52d	1	1.70e6	1.70e6	1.26e6	1.47e6
30	wech	1	1.37e6	1.44e6	1.11e6	1.16e6
31	BtbVII	1	1.26e6	1.38e6	9.86e5	1.15e6
32	BtbVII	2	1.06e6	1.16e6	1.42e6	6.75e5
33	CG12507	1	1.64e6	1.65e6	1.17e6	1.27e6
34	alphaTub84D	1	1.46e6 (active)	1.56e6	8.57e5	9.22e5
35	CG15514	1	5.08e5		8.56e5	
36	CG13516	1	1.70e6	1.79e6	1.19e6	1.31e6
37	l(1)G0320	1	6.06e5		8.46e5	
38	hlk	1	1.63e6	1.65e6	1.33e6	1.37e6
39	hlk	2	1.62e6	1.57e6	1.42e6	1.31e6
40	CrebB	1	1.55e6	1.56e6	1.07e6	1.14e6
41	Slik	1	1.33e6	1.38e6	1.11e6	1.12e6
42	Frl	1	1.39e6	1.43e6	1.04e6	1.28e6
43	Frl	2	1.50e6	1.56e6	1.26e6	1.45e6
44	Frl	3	1.41e6	1.45e6	9.78e5	1.16e6
45	Cpr65Aw	1	1.56e6	1.45e6	9.82e5	1.21e6
46	Tango8	1	1.44e6	1.52e6	8.80e5	9.97e5
47	sr	1	1.36e6	1.37e6	1.06e6	1.15e6
48	sr	2	1.37e6	1.31e6	6.39e5	7.28e5
49	Odj	1	1.54e6	1.56e6	1.17e6	1.27e6
50	CG15211	1	1.55e6	1.51e6	9.64e5	1.11e6
51	cDIP	1	1.55e6	1.69e6	1.25e6	1.32e6
52	CG31091	1	1.40e6	1.47e6	1.01e6	1.05e6
53	HLH54F	1	1.68e6	1.64e6	1.33e6	1.50e6
54	dom	1	1.05e6	1.16e6	8.04e5	8.24e5
55	dom	2	1.33e6	1.47e6	1.11e6	2.77e5
56	ppk23	1	1.47e6	1.47e6	1.00e6	1.04e6
57	CG12219	1	1.47e6	1.46e6	1.01e6	1.10e6
58	mute	1	1.50e6	1.57e6	7.64e5	8.68e5
59	g	1	1.58e6	1.46e6	1.18e6	1.31e6
